Data on 39 molecules can be found in the supplement of paper PMC12873370.

Several values for one entry are separate records, joined by “and”; a condition that tells them apart may be missing. Equal values may be shown once. The list shows a part of the results. Most values come without repeats; read them as rough.

In one test the test system is MEPP (mouse ovarian epithelium Trp53/Pten KO). Briefly: cell viability relative to untreated (fraction); higher = less growth inhibition. The following applies: 5 µM; 3 days.
Turning to `O=C(/C=C/c1ccc(O)cc1)OC[C@H]1O[C@@H](Oc2c(-c3ccc(O)cc3)oc3cc(O)cc(O)c3c2=O)[C@H](O)[C@@H](O)[C@@H]1O`, the cell viability was determined as 0.988.

The molecule `CC1=C(/C=C/C(C)=C/C=C/C(C)=C/CO)C(C)(C)CCC1` displayed a cell viability of 0.838.

`O=C(O)CCCCCCC(=O)O` yielded a cell viability of 1.24.

As to `O=C(O)c1cc(O)c2c(c1)C(=O)c1cccc(O)c1C2=O`, the cell viability is 0.938.

Molecule `CC(=O)NC[C@H]1CN(c2ccc(N3CCOCC3)c(F)c2)C(=O)O1` registered a cell viability of 1.14.

Take `Cc1c(C(=O)NCCO)[n+]([O-])c2ccccc2[n+]1[O-]`: the cell viability amounted to 0.956.

For the molecule `Oc1ccc(OC2CCCCO2)cc1` (stereo not drawn), the cell viability stood at 1.07.

In turn, `Cc1ccc(C=O)o1` had a cell viability of 1.05.

Regarding `COc1ccc(C[C@@H]2c3cc(Oc4cc(C[C@@H]5c6cc(OC)c(OC)cc6CCN5C)ccc4O)c(OC)cc3CCN2C)cc1`, the cell viability stood at 0.946.

Take `O=C(O)CC(O)C(=O)O` (stereo not drawn): the cell viability was 1.27 and 0.948.

Molecule `Nc1ncnc2c1ncn2[C@@H]1O[C@H](CSCC[C@H](N)C(=O)O)[C@@H](O)[C@H]1O` showed a cell viability of 0.76.

As for `C[C@H](O)[C@H](O)[C@H]1CNc2nc(N)[nH]c(=O)c2N1`, the cell viability amounted to 0.992.

Regarding `O=C(O)c1ccccc1`, the cell viability amounted to 1.02.

For the molecule `O=C(O)Cc1c[nH]c2ccccc12`, the cell viability was 0.862.

`O=P(O)(O)OC[C@H]1OC(O)(COP(=O)(O)O)[C@@H](O)[C@@H]1O` (stereo partly drawn) displayed a cell viability of 0.949.

Turning to `CCCCCCCCCCCCCCCCO`, the cell viability amounted to 1.02.

The molecule `C/C=C(\C)C(=O)O[C@@H]1c2c(ccc3ccc(=O)oc23)OC(C)(C)[C@@H]1OC(C)=O` showed a cell viability of 1.14.

Regarding `CSCCC(NC(C)=O)C(=O)O` (stereo not drawn), the cell viability worked out at 0.868.

With `O=C1C[C@@H](c2ccc(O[C@@H]3O[C@H](CO)[C@@H](O)[C@H](O)[C@H]3O)cc2)Oc2cc(O)ccc21`, the cell viability is 1.07.

The molecule `OC1COC(O)CO1` (stereo not drawn) yielded a cell viability of 0.955.

Consider `O=C(O)CC(=O)O`, for which the cell viability amounted to 0.889.

As for `Cc1ncc(COP(=O)(O)O)c(C=O)c1O`, the cell viability is 0.813 and 0.943.

In turn, `Cc1ccc(C(C)C)c(O)c1` yielded a cell viability of 1.4.

In turn, `NCCC(=O)O` displayed a cell viability of 0.937.

As for `CC[C@H]1OC(=O)[C@H](C)[C@@H](O[C@H]2C[C@@](C)(OC)[C@@H](O)[C@H](C)O2)[C@H](C)[C@@H](O[C@@H]2O[C@H](C)C[C@H](N(C)C)[C@H]2O)[C@](C)(OC)C[C@@H](C)C(=O)[C@H](C)[C@@H](O)[C@]1(C)O`, the cell viability is 1.07.

With `O=C(O)c1ccc(Cl)cc1O`, the cell viability turned out to be 0.991.

For the molecule `CN1c2ccccc2C(=O)N2CCc3c([nH]c4ccccc34)[C@@H]21`, the cell viability worked out at 1.01.

Regarding `CC(C)CC(=O)N[C@H](C(=O)N[C@H](C(=O)N[C@@H](CC(C)C)[C@@H](O)CC(=O)N[C@@H](C)C(=O)N[C@@H](CC(C)C)[C@@H](O)CC(=O)O)C(C)C)C(C)C`, the cell viability came to 1.09.

Molecule `O=C(O)/C=C/c1cccc(O)c1` had a cell viability of 1.08.

In turn, `O=C(O)C(O)Cc1ccc(O)c(O)c1` (stereo not drawn) showed a cell viability of 1.41.

`CC(=O)NCC(=O)O` gave a cell viability of 0.799.

`COc1cc(C)c(/C=C/C(C)=C/C=C/C(C)=C/C(=O)O)c(C)c1C`: the cell viability stood at 1.11.

In the case of `O=C(O)[C@H]1CCCN1`, the cell viability worked out at 0.967.

Molecule `CC(=O)C1=C(O)C=C2Oc3c(C(C)=O)c(O)c(C)c(O)c3C2(C)C1=O` (stereo not drawn) showed a cell viability of 0.806.

The molecule `Cc1nc(Nc2ncc(C(=O)Nc3c(C)cccc3Cl)s2)cc(N2CCN(CCO)CC2)n1` registered a cell viability of 0.419.

For `C=CC1=C(C(=O)O)N2C(=O)[C@@H](NC(=O)/C(=N\OCC(=O)O)c3csc(N)n3)[C@H]2SC1`, the cell viability was 1.08.

`O=C(/C=C/c1ccc(O)c(O)c1)O[C@@H]1CC(O)(C(=O)O)C[C@@H](OC(=O)/C=C/c2ccc(O)c(O)c2)C1O` (stereo partly drawn): the cell viability amounted to 0.924.

On to `CC1(C)[C@@H](O[C@H]2O[C@H](C(=O)O)[C@@H](O)[C@H](O)[C@H]2O[C@@H]2O[C@H](C(=O)O)[C@@H](O)[C@H](O)[C@H]2O)CC[C@]2(C)[C@H]3C(=O)C=C4[C@@H]5C[C@@](C)(C(=O)O)CC[C@]5(C)CC[C@@]4(C)[C@]3(C)CC[C@@H]12`, for which the cell viability is 0.926 and 1.05.

Take `N=C(N)NCCCCN`: the cell viability was 0.877.

In a further test the test system is PREPP (mouse prostate epithelium Trp53/Pten KO). The test is described as above. The following applies: 5 µM; 3 days.
In turn, `O=C(/C=C/c1ccc(O)cc1)OC[C@H]1O[C@@H](Oc2c(-c3ccc(O)cc3)oc3cc(O)cc(O)c3c2=O)[C@H](O)[C@@H](O)[C@@H]1O` registered a cell viability of 0.867.

`CC1=C(/C=C/C(C)=C/C=C/C(C)=C/CO)C(C)(C)CCC1` gave a cell viability of 0.873.

With `O=C(O)CCCCCCC(=O)O`, the cell viability amounted to 0.892.

Molecule `O=C(O)c1cc(O)c2c(c1)C(=O)c1cccc(O)c1C2=O` registered a cell viability of 0.923.

In turn, `CC(=O)NC[C@H]1CN(c2ccc(N3CCOCC3)c(F)c2)C(=O)O1` gave a cell viability of 0.98.

As to `Cc1c(C(=O)NCCO)[n+]([O-])c2ccccc2[n+]1[O-]`, the cell viability came to 1.04.

The molecule `Oc1ccc(OC2CCCCO2)cc1` (stereo not drawn) returned a cell viability of 0.902.

Turning to `Cc1ccc(C=O)o1`, the cell viability is 0.943.

The molecule `COc1ccc(C[C@@H]2c3cc(Oc4cc(C[C@@H]5c6cc(OC)c(OC)cc6CCN5C)ccc4O)c(OC)cc3CCN2C)cc1` came in with a cell viability of 1.23.

Turning to `O=C(O)CC(O)C(=O)O` (stereo not drawn), the cell viability is 0.655 and 0.941.

Consider `Nc1ncnc2c1ncn2[C@@H]1O[C@H](CSCC[C@H](N)C(=O)O)[C@@H](O)[C@H]1O`, for which the cell viability stood at 1.07.

As to `C[C@H](O)[C@H](O)[C@H]1CNc2nc(N)[nH]c(=O)c2N1`, the cell viability stood at 0.95.

The molecule `O=C(O)c1ccccc1` had a cell viability of 0.848.

`O=C(O)Cc1c[nH]c2ccccc12` gave a cell viability of 0.888.

`O=P(O)(O)OC[C@H]1OC(O)(COP(=O)(O)O)[C@@H](O)[C@@H]1O` (stereo partly drawn): the cell viability amounted to 1.05.

For `CCCCCCCCCCCCCCCCO`, the cell viability was found to be 0.846.

Regarding `C/C=C(\C)C(=O)O[C@@H]1c2c(ccc3ccc(=O)oc23)OC(C)(C)[C@@H]1OC(C)=O`, the cell viability was 0.858.

As for `CSCCC(NC(C)=O)C(=O)O` (stereo not drawn), the cell viability is 0.916.

In the case of `O=C1C[C@@H](c2ccc(O[C@@H]3O[C@H](CO)[C@@H](O)[C@H](O)[C@H]3O)cc2)Oc2cc(O)ccc21`, the cell viability amounted to 1.23.

On to `OC1COC(O)CO1` (stereo not drawn), for which the cell viability stood at 0.888.

As to `O=C(O)CC(=O)O`, the cell viability was found to be 0.975.

With `Cc1ncc(COP(=O)(O)O)c(C=O)c1O`, the cell viability is 0.991 and 0.865.

In turn, `Cc1ccc(C(C)C)c(O)c1` registered a cell viability of 0.972.

The molecule `NCCC(=O)O` returned a cell viability of 1.

`CC[C@H]1OC(=O)[C@H](C)[C@@H](O[C@H]2C[C@@](C)(OC)[C@@H](O)[C@H](C)O2)[C@H](C)[C@@H](O[C@@H]2O[C@H](C)C[C@H](N(C)C)[C@H]2O)[C@](C)(OC)C[C@@H](C)C(=O)[C@H](C)[C@@H](O)[C@]1(C)O` gave a cell viability of 0.944.

`O=C(O)c1ccc(Cl)cc1O` had a cell viability of 0.973.

`CN1c2ccccc2C(=O)N2CCc3c([nH]c4ccccc34)[C@@H]21` returned a cell viability of 0.925.

With `CC(C)CC(=O)N[C@H](C(=O)N[C@H](C(=O)N[C@@H](CC(C)C)[C@@H](O)CC(=O)N[C@@H](C)C(=O)N[C@@H](CC(C)C)[C@@H](O)CC(=O)O)C(C)C)C(C)C`, the cell viability is 0.909.

`O=C(O)/C=C/c1cccc(O)c1`: the cell viability was determined as 0.976.

As for `O=C(O)C(O)Cc1ccc(O)c(O)c1` (stereo not drawn), the cell viability worked out at 0.942.

The molecule `CC(=O)NCC(=O)O` had a cell viability of 1.01.

Molecule `COc1cc(C)c(/C=C/C(C)=C/C=C/C(C)=C/C(=O)O)c(C)c1C` came in with a cell viability of 1.06.

The molecule `O=C(O)[C@H]1CCCN1` returned a cell viability of 1.03.

For `CC(=O)C1=C(O)C=C2Oc3c(C(C)=O)c(O)c(C)c(O)c3C2(C)C1=O` (stereo not drawn), the cell viability was 0.999.

`Cc1nc(Nc2ncc(C(=O)Nc3c(C)cccc3Cl)s2)cc(N2CCN(CCO)CC2)n1` displayed a cell viability of 0.41.

Turning to `C=CC1=C(C(=O)O)N2C(=O)[C@@H](NC(=O)/C(=N\OCC(=O)O)c3csc(N)n3)[C@H]2SC1`, the cell viability stood at 0.905.

`O=C(/C=C/c1ccc(O)c(O)c1)O[C@@H]1CC(O)(C(=O)O)C[C@@H](OC(=O)/C=C/c2ccc(O)c(O)c2)C1O` (stereo partly drawn) came in with a cell viability of 0.884.

On to `CC1(C)[C@@H](O[C@H]2O[C@H](C(=O)O)[C@@H](O)[C@H](O)[C@H]2O[C@@H]2O[C@H](C(=O)O)[C@@H](O)[C@H](O)[C@H]2O)CC[C@]2(C)[C@H]3C(=O)C=C4[C@@H]5C[C@@](C)(C(=O)O)CC[C@]5(C)CC[C@@]4(C)[C@]3(C)CC[C@@H]12`, for which the cell viability is 0.871 and 1.08.

Consider `N=C(N)NCCCCN`, for which the cell viability stood at 0.92.
